The whole screen tested about 320,000 compounds, of which about 620 (0.19%) were called active. This list was built around the results that the source calls inconclusive (neither active nor inactive); the mix of calls is not that of the screen. Calls come from the whole dose curve; as a rule, active = well fitted activation curve with a large enough effect; inconclusive = small, poorly fitted or top-dose-only effect; inactive = no such curve, though single readings can be large or run the other way. Where the call is inconclusive, the potency comes from a doubtful curve fit.
Experiment: qHTS Assay for Identifying a Potential Treatment of Ataxia-Telangiectasia; note: nearly all actives have a fitted effect of over 45% in size; for activation: % of control where 0% means no effect
Conditions: […] A-T fibroblasts, KAP-1 phosphorylation AlphaLISA, neocarzinostatin DNA damage 30 min before lysis; series mostly up to 57.5 µM; activation: at the top concentration
How it was run: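 ATM-like activity read as KAP-1 phosphorylation via AlphaLISA donor/acceptor antibody pairs after lysis and 6 hr at 25C. Cells were ATM-null patient fibroblasts ([…], hTERT), dosed 60 min, then exposed to the DSB inducer NCS for 30 min.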
Potency is the fitted concentration of half-maximal effect.

Row | Compound | Potency | activation
1 | COc1ccc(OC)c(C2CC(c3ccccc3)=NN2C(=S)Nc2ccccc2)c1 (centres undefined) | inconclusive: 0.708 µM [activator, full curve, poor fit] | 
2 | COc1cccc(/C=N/NC(=O)CNC(=O)C2COc3ccccc3O2)c1O (centres undefined) |  | inactive: -1.97%
3 | Cc1cc(C)n(-c2ccc(S(=O)(=O)N3CCOCC3)cc2[N+](=O)[O-])n1 | active: 39.8 µM | 
4 | CNC(=O)c1[nH]cnc1C(=O)N[C@@H](C)C(=O)OCc1ccccc1 | active: 44.7 µM | 
5 | Nc1nonc1C(=O)NCCNC(=O)c1ccc(Cl)cc1 |  | inactive: 1.23%
6 | O=C(Nc1ccc2c(c1)OCO2)c1nn(-c2ccccc2)c(=O)c2ccccc12 | inconclusive: 4.47 µM [activator, single point] | 
7 | COc1cc(/C=C/C(=O)O)cc(S(=O)(=O)Nc2ccc3nc(C)sc3c2)c1OC | inconclusive: 3.16 µM [activator, partial curve] | 
8 | CN(C)C(=O)c1cc(C(=O)c2ccc(F)cc2C(F)(F)F)c[nH]1 | inconclusive: 10 µM [activator, full curve, poor fit] | 
9 | COC(=O)[C@@H]1C[C@@]2(O)[C@H](O)[C@H](O)[C@H](O)C[C@H]2N1CC(c1ccccc1)c1ccccc1 | inconclusive: 39.8 µM [activator, single point] | 
10 | CN(C)Cc1ccc(F)cc1Sc1cc(Cl)ccc1Cl | inconclusive: 39.8 µM [activator, single point] | 
11 | Fc1c(F)c(F)c(/C=N/NC(=S)Nc2cccnc2)c(F)c1F |  | inactive: -5.51%
12 | Cc1nn(CC(=O)NC(C)C(C)C)c(C)c1S(=O)(=O)N1CCCCC1 (centres undefined) | inconclusive: 0.631 µM [activator, partial curve, poor fit] | 
13 | Cc1cc(C)n(-c2ccc([N+](=O)[O-])cc2)n1 |  | inactive: 9.14%
14 | COc1cccc(C(O)c2nc3ccccc3n2C(C)C)c1OC (centres undefined) | inconclusive: 0.708 µM [activator, full curve, poor fit] | 
15 | O=C(Cc1ccc([N+](=O)[O-])cc1)N1N=C2CCCCC2C1(O)C(F)(F)F (centres undefined) | inconclusive: 3.55 µM [activator, partial curve, poor fit] | 
16 | Cc1cc2c(c(=O)n1-c1ccccc1)C1O[C@](c3ccsc3)(Cc3ccccc31)O2 |  | inactive: 2.58% [at 11.5 µM]
17 | C(=C1/CCCC2=C1Nc1ncnn1C2c1ccccc1)/c1ccccc1 (centres undefined) | active: 39.8 µM | 
18 | N#CC(C#N)=C1C=CC=CN1/C(=C\c1ccccc1Cl)C(=O)c1ccccc1 | inconclusive: 3.16 µM [activator, partial curve] | 
19 | O=C(Nc1nc2ccccc2s1)c1ccc(F)cc1 |  | inactive: 8.93%
20 | COc1ccc(-c2cc(CC3(C(=O)O)CCN(C(=O)OC(C)(C)C)CC3)on2)c(OC)c1 |  | inactive: -1.81%
21 | Cc1ccc(CN2C(=O)N/C(=C\c3cccn3-c3cccc(C(=O)O)c3)C2=O)cc1 |  | inactive: -1.33%
22 | CNc1oc(/C=C/c2ccccc2)nc1C#N | inconclusive: 25.1 µM [activator, partial curve] | 

Row | Compound | Potency | activation
23 | Cc1ccc(-c2noc(CCCc3ccccc3)n2)cc1 | inconclusive: 35.5 µM [activator, partial curve] | 
24 | Cc1ccc(C2(C)NC(=O)N(CC(=O)Nc3ccccc3N3CCCC3)C2=O)cc1 (centres undefined) | inconclusive: 3.98 µM [activator, partial curve] | 
25 | CC(O)CNc1nc(NCc2ccccc2)c2cnn(C)c2n1 (centres undefined) |  | inactive: -7.22%
26 | CC(C)(C)OC(=O)NCCCC[C@H](NC(=O)c1nc[nH]c1C(=O)N[C@@H](CCCCNC(=O)OC(C)(C)C)C(=O)OC(C)(C)C)C(=O)OC(C)(C)C | active: 22.4 µM | 
27 | Cc1ccccc1OCC(=O)NNC(=O)c1ccc2c(=O)n3c(nc2c1)CCC3 |  | inactive: -2.16%
28 | O=C(CSc1nnc(-c2ccco2)n1-c1ccccc1)Nc1c(Cl)cc(Cl)cc1C(=O)O | inconclusive: 39.8 µM [activator, single point] | 
29 | Cc1ccc2nc(-c3ccccc3)cc(C(=O)N3CCN(S(=O)(=O)c4c(C)noc4C)CC3)c2c1 | inconclusive: 1.41 µM [activator, full curve, poor fit] | 
30 | O=C(CCN1C(=O)/C(=C/c2ccccc2Cl)SC1=S)NNC(=O)c1cccnc1 | inconclusive: 0.891 µM [activator, full curve, poor fit] | 
31 | CCOC(=O)NC(=O)CSc1nnnn1-c1ccc(C)cc1 |  | inactive: -1.84%
32 | COc1ccc(C(=O)NCC2OCCc3ccccc32)c(O)c1 (centres undefined) |  | inactive: 17.5%
33 | CC(C)(CNC(=O)c1sc2cc(Cl)ccc2c1Cl)N1CCOCC1 | inconclusive: 39.8 µM [activator, single point] | 
34 | CC1Sc2ccc(S(=O)(=O)N3CCC(C(=O)NCC(C)c4ccccc4)CC3)cc2NC1=O (centres undefined) | inconclusive: 5.62 µM [activator, single point] | 
35 | Cc1ccc(C(=O)N/N=C/c2ccc(S(=O)(=O)O)o2)c(Cl)c1 | inconclusive: 2.24 µM [activator, full curve, poor fit] | 
36 | CN(C)/C=C/C(=O)c1ccc2noc(-c3ccccc3)c2c1 |  | inactive: -0.159%
37 | CC(=O)NCCc1nc2ccccc2n1CCCCOc1ccccc1 | inconclusive: 7.08 µM [activator, single point] | 
38 | S=c1[nH]nc(COc2ccccc2)n1/N=C/c1ccccc1Cl | active: 5.01 µM | 
39 | Cc1ccc(C(=O)N/C(=C\c2ccco2)C(=O)NC2CCS(=O)(=O)C2)cc1 (centres undefined) | active: 10 µM | 
40 | Cc1cccc(C(=O)N[C@H](C(=O)Nc2ccc(C)c(S(=O)(=O)N(C)C)c2)C(C)C)c1 | inconclusive: 5.62 µM [activator, single point] | 
41 | O=C1CN(Cc2nc3cc(Cl)ccc3c(=O)[nH]2)CCN1 | inconclusive: 10 µM [activator, partial curve, poor fit] | 
42 | Cc1ccc(NS(=O)(=O)c2cccc3cccnc23)c(Cl)c1 | inconclusive: 39.8 µM [activator, single point] | 
43 | CN(C)c1ccc2nc3ccc(=[N+](C)C)cc-3sc2c1 | active: 11.2 µM | 
44 | COc1cccc2[nH]c3c(N4CCCCC4)ncnc3c12 | inconclusive: 39.8 µM [activator, partial curve, poor fit] | 

Part of the list above, as a markdown table.

| Row | Compound | Potency | activation |
| --- | --- | --- | --- |
| 33 | CC(C)(CNC(=O)c1sc2cc(Cl)ccc2c1Cl)N1CCOCC1 | inconclusive: 39.8 µM [activator, single point] |  |
| 34 | CC1Sc2ccc(S(=O)(=O)N3CCC(C(=O)NCC(C)c4ccccc4)CC3)cc2NC1=O (centres undefined) | inconclusive: 5.62 µM [activator, single point] |  |
| 35 | Cc1ccc(C(=O)N/N=C/c2ccc(S(=O)(=O)O)o2)c(Cl)c1 | inconclusive: 2.24 µM [activator, full curve, poor fit] |  |
| 36 | CN(C)/C=C/C(=O)c1ccc2noc(-c3ccccc3)c2c1 |  | inactive: -0.159% |
| 37 | CC(=O)NCCc1nc2ccccc2n1CCCCOc1ccccc1 | inconclusive: 7.08 µM [activator, single point] |  |
| 38 | S=c1[nH]nc(COc2ccccc2)n1/N=C/c1ccccc1Cl | active: 5.01 µM |  |
| 39 | Cc1ccc(C(=O)N/C(=C\c2ccco2)C(=O)NC2CCS(=O)(=O)C2)cc1 (centres undefined) | active: 10 µM |  |
| 40 | Cc1cccc(C(=O)N[C@H](C(=O)Nc2ccc(C)c(S(=O)(=O)N(C)C)c2)C(C)C)c1 | inconclusive: 5.62 µM [activator, single point] |  |
| 41 | O=C1CN(Cc2nc3cc(Cl)ccc3c(=O)[nH]2)CCN1 | inconclusive: 10 µM [activator, partial curve, poor fit] |  |

From PubChem BioAssay AID485349 (National Center for Advancing Translational Sciences (NCATS), 2010)
